The data set is described as follows: general procedure: solution-phase peptide synthesis; HATU / N,N-diisopropylethylamine; EDCI/HOBt; NHS active esters. To be noted: trifluoroacetic acid salt; for final purity (method not given) / crude LC-MS purity / final LC-MS purity: LC-MS.

In the case of “(4S)-4,11-diethyl-3,14-dioxo-3,4,12,14-tetrahydro-1H-pyrano[3′,4′:6,7]indolizino[1,2-b]quinolin-4-yl N-{2-[{2-[{2-[({4-[({(1S)-2-carboxy-1-[3-({3-[(propylcarbamoyl)amino]benzene-1-sulfonyl}amino)phenyl]ethyl}carbamoyl)amino]phenyl}carbamoyl)amino]ethyl}(methyl)amino]ethyl}(methyl)amino]ethyl}-N-methylglycylglycyl-L-prolyl-L-valinate”, for the setting “conjugation step”, the “final purity (method not given)” value is recorded as 93% purity and the conjugation yield worked out at 72% yield.
Consider “(4S)-4,11-diethyl-3,14-dioxo-3,4,12,14-tetrahydro-1H-pyrano[3′,4′:6,7]indolizino[1,2-b]quinolin-4-yl N^2-{13-[4-({[(1R)-2-carboxy-1-{3-[({3-[(propylcarbamoyl)amino]phenyl}sulfonyl)amino]phenyl}ethyl]carbamoyl}amino)anilino]-3,6,9-trimethyl-13-oxo-12-aza-3,6,9-triazoniatridecan-1-oyl}-L-asparaginyl-L-prolyl-L-valinate trichloride [B4b]”, for which, for the setting “late stage modification step”, the “final purity (method not given)” value is given as 100% purity and the step yield was determined as 86%.
As to Boc-Intermediate 3, for the setting “coupling step”, the “final purity (method not given)” value is 100% purity and the step yield came to 81%.
In the same order, the values of Boc-Intermediate 11 are 98% purity and 81% yield.
Take Boc-Intermediate 12: for the setting “conjugation step”, the “final purity (method not given)” value is 87% purity and the conjugation yield amounted to 52% yield.
On to Boc-Intermediate 13, for which, under “coupling step”, the “final purity (method not given)” value came out at 100% purity and the step yield came out at 68% yield.
Regarding “N-(tert-butoxycarbonyl)-N-methylglycyl-N-methylglycyl-N-methylglycyl-N-methylglycyl-N-methylglycyl-N-methylglycyl-N-methylglycyl-N-methylglycine”, for the setting “late stage modification step”, the “crude LC-MS purity” value is reported as 80% purity and the step yield came out at 71% yield.
Take “N-{5-[(2,5-dioxopyrrolidin-1-yl)oxy]-5-oxopentanoyl}-N-methylglycyl-N-methylglycyl-N-methylglycyl-N-methylglycine”: where the note is “late stage modification step”, the “final LC-MS purity” value stood at 93% purity and the step yield is 20% yield.
“Trisodium (4S)-4,11-diethyl-3,14-dioxo-3,4,12,14-tetrahydro-1H-pyrano[3′,4′:6,7]indolizino [1,2-b]quinoline-4-yl 1-[(2S)-15-{[N^2,N^6-bis({4-[({(1R)-2-carboxylato-1-[3-({3-[(propylcarbamoyl)amino]benzene-1-sulfonyl}amino)phenyl]ethyl}carbamoyl)amino]phenyl} carbamoyl)-L-lysyl]amino}-2-(carboxylatomethyl)-4-oxo-7,10,13-trioxa-3-azapentadecanan-1-oyl]-L-prolyl-L-valinate”: under “conjugation step”, the “final purity (method not given)” value was 92% purity and the conjugation yield was 41%.
“benzyl N-(tert-butoxycarbonyl)-N-methylglycyl-N-methylglycyl-N-methylglycyl-N-methylglycinate”: for the setting “coupling step”, the “final purity (method not given)” value amounted to 97% and the step yield was found to be 96%.
With “benzyl N-(tert-butoxycarbonyl)-N-methylglycyl-N-methylglycyl-N-methylglycyl-N-methylglycyl-N-methylglycyl-N-methylglycyl-N-methylglycyl-N-methylglycinate”, for the setting “coupling step”, the “final LC-MS purity” value is listed as 89% purity and the step yield was determined as 81% yield.
For “benzyl N-{5-[(2,5-dioxopyrrolidin-1-yl)oxy]-5-oxopentanoyl}-N-methylglycyl-N-methylglycyl-N-methylglycyl-N-methylglycyl-N-methylglycyl-N-methylglycyl-N-methylglycyl-N-methylglycinate”, under “late stage modification step”, the “final LC-MS purity” value is recorded as 91% purity and the step yield was determined as 62% yield.
“disodium N-({4-[({(1R)-2-carboxylato-1-[3-({3-[(propylcarbamoyl)amino]benzene-1-sulfonyl}amino)phenyl]ethyl}carbamoyl)amino]phenyl}carbamoyl)-N-methylglycyl-N-methylglycyl-N-methylglycyl-N-{(2S)-3-carboxylato-1-[(2S)-2-{[(2S)-1-{[(4S)-4,11-diethyl-3,14-dioxo-3,4,12,14-tetrahydro-1H-pyrano[3′,4′:6,7]indolizino[1,2-b]quinolin-4-yl]oxy}-3-methyl-1-oxobutan-2-yl]carbamoyl}pyrrolidin-1-yl]-1-oxopropan-2-yl}-N2-methylglycinamide”: for the setting “conjugation step”, the “final purity (method not given)” value is 97% purity and the conjugation yield turned out to be 69% yield. For the setting “late stage modification step”, the “final purity (method not given)” value is reported as 93% purity and the step yield stood at 97%.
For “trifluoroacetic acid-benzyl N-methylglycyl-N-methylglycyl-N-methylglycyl-N-methylglycinate (1/1)”, for the setting “late stage modification step”, the “crude LC-MS purity” value was found to be 100% purity and the step yield stood at 100% yield.

The values above are taken from patent publication US20240423973A1 (VINCERX PHARMA GMBH, priority 2021, published 2024).
